Percent effect of library compounds

By UniProt entry, the sequences of proteins in these tests, tags left out. Residues count along the entry.
UniProt A4I591, 1-473: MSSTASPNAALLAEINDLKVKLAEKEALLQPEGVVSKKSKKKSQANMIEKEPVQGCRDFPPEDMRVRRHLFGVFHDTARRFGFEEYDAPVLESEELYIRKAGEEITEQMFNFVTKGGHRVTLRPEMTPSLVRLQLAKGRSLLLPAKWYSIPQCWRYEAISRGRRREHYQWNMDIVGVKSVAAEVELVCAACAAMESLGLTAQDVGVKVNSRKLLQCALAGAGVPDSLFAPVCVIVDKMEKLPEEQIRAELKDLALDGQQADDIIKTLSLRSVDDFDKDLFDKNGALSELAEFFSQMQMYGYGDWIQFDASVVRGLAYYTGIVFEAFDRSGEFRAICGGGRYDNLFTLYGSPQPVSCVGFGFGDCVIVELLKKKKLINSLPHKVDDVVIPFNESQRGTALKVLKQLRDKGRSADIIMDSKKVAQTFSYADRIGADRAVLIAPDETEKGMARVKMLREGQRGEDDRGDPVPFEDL

From ChEMBL document CHEMBL3988442, “University of Dundee, Small-Polar-MMV Screening Library” (2021).

LiHisRS: 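Histidine-tRNA ligase, Leishmania infantum (UniProt A4I591). Enzyme assay of histidyl-tRNA synthetase; the read-out is not stated. Tested at 30 µM. Higher reads as stronger inhibition (inferred: compounds with an IC50 in retests scored well above the rest). The assay is labelled LdHisRS but filed under L. infantum. About 69,000 compounds were tested under these conditions; 0.6% (about 410) showed 50% or more at least once.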
Toxoplasma: 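Assay of Toxoplasma gondii numbers, read through their beta-galactosidase reporter with a colour substrate. Tested at 10 µM. Higher reads as fewer parasites (inferred from which compounds were picked for retests). Size under these conditions: about 67,000 compounds, about 260 of them at 50% or above in at least one test.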

Results are given as percent effect. How 0% and 100% were set is not recorded. Most values in the screen are low, and negative values occur. Compounds were drawn at random from those tested, without regard to their results. A dash means the value is not listed here; it may have been measured.

| Compound | LiHisRS | Toxoplasma |
|---|---|---|
| `CCN1CCc2nc(N3CCOCC3)nc(NC(C)C)c2C1` | 7 | 0.1012 |
| `O=C(NC1CCC1)[C@H]1C[C@@H]2CN(CC3CC3)C[C@H]1O2` | 7.547 | - |
| `CCOC(C)C(=O)NCc1cccc(CN2CCCCCC2)c1` (configuration not stated) | 30.14 | 4.921 |
| `O=C(Nc1ccc(CC(=O)N2CCSCC2)cc1)NC1CC1` | 30.14 | 10.48 |
| `CC(C)N1CCc2nnc(COc3cncnc3)n2CC1.O=C(O)C(F)(F)F` | - | 4.459 |
| `Cc1oc(C(C)C)cc1C(=O)N1C[C@H]2CC[C@@H]1CN(S(=O)(=O)N(C)C)C2` | 17.11 | - |
| `Cc1cc(C)n(C2CCCN(C(=O)Cc3cccc(F)c3)C2)n1` (configuration not stated) | 8.475 | 10.41 |
| `COc1ccccc1-n1c(O)cc(C)c(C#N)c1=O` | 26.79 | -2.68 |
| `CCN(C)C(=O)c1cc(-c2cn(C(C)C)cn2)n2ccccc12` | 3.448 | -0.1618 |
| `O=C(O)C(F)(F)F.[H][C@@]12CN(CCOC)CCO[C@]1([H])CN(C(=O)COc1ccc(C)cc1)C2` | - | -1.241 |
| `CCc1nnc(CN(C)C(=O)C2CC(=O)N(C3CC3)C2)o1` (configuration not stated) | 6.557 | -3.097 |
| `O=C(COc1ccccc1)NCC1CC1` | -2.083 | -1.53 |
| `CC(CO)(NC(=O)NCCc1ccc(Br)s1)C1CC1` (configuration not stated) | 19.35 | -3.29 |
| `Cn1cnnc1CC1CCN(Cc2c(Cl)cncc2Cl)CC1` | 0 | -1.263 |
| `CCn1cc(S(=O)(=O)N2CCCSc3ccccc32)cn1` | 10.96 | -10.37 |
| `COc1ccc2c(c1)C(NCCc1c(C)noc1C)CCCO2` (configuration not stated) | 2.222 | -1.853 |
| `Cc1nc(CC(=O)N2CCC[C@H]2c2nc(C(C)C)no2)cs1` | 16.35 | -0.6397 |
| `O=C(O)C(F)(F)F.[H][C@@]12CN(CC)C[C@]1(C(=O)N(C)C)CCC21CCN(C(=O)NC(C)C)CC1` | - | 8.167 |
| `CCC[C@@H]1CN(Cc2ccccc2-c2ccco2)C[C@H]1NC(C)=O` | 31.71 | 33.99 |
| `CSc1cc2c(cc1NC(=O)NCCn1ccnc1)OCCO2` | 15.15 | -12.53 |
| `CN1CCC(Cc2nc(-c3cnccn3)n(Cc3ccccc3)n2)CC1` | 14.29 | 2.116 |
| `Cc1nc(CN(C)C2CCN(CCc3ccccn3)C2)no1` (configuration not stated) | 11.97 | 9.649 |
| `CCC(O)(CNCc1cc[nH]n1)c1ccc(Br)cc1` (configuration not stated) | 2.857 | 2.203 |
| `Cc1ncsc1CN1C[C@H]2OCC[C@H]2[C@H](C(=O)NCC2CC2)C1` | 8.065 | - |
| `O=C1CCN(C(=O)CCc2cc(Br)cs2)CCN1` | 6.667 | 0.8943 |
| `Cc1noc([C@]23COC[C@H]2CN(Cc2cc(C)on2)C3)n1` | 11.97 | - |
| `Cn1cnnc1SCC(=O)NC1CC(=O)N(CCc2ccccc2)C1` (configuration not stated) | -1.149 | -5.193 |
| `O=C(NCCC(=O)N1CCCCCCC1)c1ccoc1` | 15.38 | 3.306 |
| `COc1ccccc1CNC(=O)C(C)N1CC(n2nc(C)cc2C)C1` (configuration not stated) | 7.752 | -13.52 |
| `O=C(Nc1ncnc2c1CCC2)c1ccc2c(c1)OCO2` | 10.75 | -3.153 |
| `Cc1nc([C@@H]2C[C@@H]3CCN(C(=O)Cc4cccc(F)c4)C[C@H]3O2)no1` | 9.091 | - |
| `O=C(O)C(F)(F)F.O=C(O)C(F)(F)F.O=C(O)C(F)(F)F.c1coc(CN2CCC3(CC2)COCCN(CCN2CCCC2)C3)c1` | - | -2.606 |
| `COc1cccc(-c2nc(C)c(C(=O)NC(CO)CCSC)s2)c1` (configuration not stated) | -13.59 | -5.14 |
| `CCN(Cc1ccc(CN(C)C)cc1)C(=O)c1ccncc1O` | 2.74 | -12.04 |
| `CSc1nccn1-c1ccc(C(=O)NCC2CC2)cc1` | 2.679 | 13.65 |
| `COc1cc(OC)cc(-c2cc(CN)nc3ccnn23)c1.Cl` | - | 4.475 |
| `OC(c1ccccc1)c1cn(C2CCN(Cc3nccs3)CC2)nn1` (configuration not stated) | 16.33 | 10.79 |
| `CC(=O)N1CCC(c2ccnc(Nc3cncnc3)n2)CC1` | 17.71 | -21.09 |
| `Cc1noc(C)c1CCC(=O)N1CCCN(C)CC1` | 19.64 | -24.73 |
| `O=C(NC1CC1)[C@@H]1CCO[C@@H]2CCN(C3CCCC3)C[C@H]21` | 25.71 | - |
| `Cc1ccc(F)cc1C(=O)N1CCOCC12CCCC2` | 13.83 | -2.178 |
| `CNC(=O)c1ccc(NC(=O)NC(C)c2cc(C)oc2C)c(C)c1` (configuration not stated) | 22.58 | - |
| `CC(C)c1nc(CN2CCN(C(=O)CN3CCOCC3)CC2)no1` | 14.29 | 6.699 |
| `O[C@@]1(CNCCOc2ccccc2)CCCN2CCCC[C@@H]21` | 7.5 | - |
| `Cc1c(CNC(=O)c2cn(CCC3CCCCN3)nn2)cnn1C` (configuration not stated) | 11.67 | 13.9 |
| `O=C(N[C@@H]1CCN(Cc2cc3ccccc3s2)C[C@H]1O)c1cccnc1` | 13.58 | -1.281 |
| `Cc1cccc(C(=O)N2CCC3(CCN(c4cnn(C)c4)C3=O)C2)n1.O=C(O)C(F)(F)F` (configuration not stated) | - | -9.246 |
| `Cc1nn(C)c(C)c1C1CCCN1Cc1nc2ccccc2o1` (configuration not stated) | 18.8 | -0.1669 |
| `Cc1cc(C[C@@H]2COC[C@@H]2NC(=O)CN2CCCCCC2)on1` | 1.075 | 3.401 |
| `[H][C@@]12CCN(C(=O)c3cnccn3)C[C@@]1([H])O[C@@H](C)C2` | - | 20.23 |
| `CCc1sc(C(=O)NC2CC2)cc1C` | 11.61 | 15.23 |
| `Cn1cc(CN2CCC3(CC2)CC(Nc2nccs2)CO3)cn1.O=C(O)C(F)(F)F` (configuration not stated) | - | 10.71 |

For reference, 7 entries once more:

{"compound": "Cc1nc(CN(C)C2CCN(CCc3ccccn3)C2)no1", "stereo": "configuration not stated", "LiHisRS": 11.97, "Toxoplasma": 9.649}
{"compound": "Cn1cc(CN2CCC3(CC2)CC(Nc2nccs2)CO3)cn1.O=C(O)C(F)(F)F", "stereo": "configuration not stated", "Toxoplasma": 10.71}
{"compound": "Cc1ccc(F)cc1C(=O)N1CCOCC12CCCC2", "LiHisRS": 13.83, "Toxoplasma": -2.178}
{"compound": "COc1cccc(-c2nc(C)c(C(=O)NC(CO)CCSC)s2)c1", "stereo": "configuration not stated", "LiHisRS": -13.59, "Toxoplasma": -5.14}
{"compound": "CCC[C@@H]1CN(Cc2ccccc2-c2ccco2)C[C@H]1NC(C)=O", "LiHisRS": 31.71, "Toxoplasma": 33.99}
{"compound": "COc1ccccc1-n1c(O)cc(C)c(C#N)c1=O", "LiHisRS": 26.79, "Toxoplasma": -2.68}
{"compound": "CSc1cc2c(cc1NC(=O)NCCn1ccnc1)OCCO2", "LiHisRS": 15.15, "Toxoplasma": -12.53}